{
  "source": "patent US4859765",
  "about": "(dated 1989)",
  "assay": "general procedure: Boc solid-phase peptide synthesis; Boc-Cys(BzlOMe)-O-Resin from chloromethylpolystyrene-1%-divinylbenzene resin (1 mmol Cl/g)",
  "details": "whole synthesis, scale 1.0 mmol, acetate salt",
  "data": [
    {"substance": "H-YGASDSNVYDLC-OH", "values": [
      {"measurement": "isolated mass", "value": 85, "unit": "mg"}
    ]}
  ]
}
